For at least one compound, name, drawing or mass did not settle the structure.
Test system: oxaliplatin induced apoptosis
Assay: Effect of rapamycin on oxaliplatin induced apoptosis
Type: cell-based

For `CO[C@H]1C[C@@H]2CC[C@@H](C)[C@@](O)(O2)C(=O)C(=O)N2CCCC[C@H]2C(=O)O[C@H]([C@H](C)C[C@@H]2CC[C@@H](O)[C@H](OC)C2)CC(=O)[C@H](C)/C=C(\C)[C@@H](O)[C@@H](OC)C(=O)[C@H](C)C[C@H](C)/C=C/C=C/C=C/1C` [rapamycin], the “effect on apoptosis induced by Eloxatin (oxaliplatin injection)” value (Eloxatin (oxaliplatin injection)) was “The same was observed” and the “effect on oxaliplatin induced apoptosis” value (inhibition not overwhelmed by oxaliplatin up to 1:1 (w/w) ratio) was “inhibited oxaliplatin induced apoptosis in a dose dependent manner”.
